PubChem BioAssay AID1508588, Peter MacCallum Cancer Centre | 2020
Screen: 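Genome-wide search for knock-downs that heighten vemurafenib action in melanoma cells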 (primary screen). Cells: human WM266.4 melanoma cells (BRAF V600 mutant). Reagent: siRNA pool against human genes, 40 nM. Time to read-out: 96 h from transfection to read-out. Challenge: vemurafenib 300 nM (about IC25), added 48 h after transfection, for 48 h; comparison arm got DMSO vehicle only. Read-out: 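Cell gain (DAPI nuclei at end minus before drug, mean of two replicates) and medium lactate by absorbance per cell, both as ratio to non-targeting siRNA, also grouped into fold-change classes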. Reading the numbers: cell gain with vemurafenib: higher = more cell gain than with non-targeting siRNA; lactate per cell with vemurafenib: higher = more lactate made per cell. Call rule: 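a knock-down counts as enhancing when its fold-change classes with vehicle and with vemurafenib, taken together, show a stronger drug effect on cell gain or lactate per cell; exact class pairs not stated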. Meaning of the calls: active = enhances vemurafenib effect; inactive = no enhancement seen.
This is a random part of about 18,000 deposited reagents. Of all reagents, 790 (4.4%) are marked active. 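Calls rest on a combination of fold-change classes in drug and vehicle arms, not all shown here.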

target,cell gain with vemurafenib,lactate per cell with vemurafenib,call
MAOB (monoamine oxidase B),0.3,1.8,inactive
BBOF1 (basal body orientation factor 1),0.95,1.25,inactive
HIPK2 (homeodomain interacting protein kinase 2),1.2,0.62,inactive
HAS1 (hyaluronan synthase 1),0.13,2.24,inactive
SAMD7 (sterile alpha motif domain containing 7),0.62,0.66,inactive
PCDHB11 (protocadherin beta 11),0.69,0.84,inactive
SLC25A53,0.83,0.86,inactive
PCIF1 (phosphorylated CTD interacting factor 1),0.16,1.4,active
PCSK7 (proprotein convertase subtilisin/kexin type 7),0.55,1.8,inactive
MGA (MAX dimerization protein MGA),-0.01,1.85,inactive
PCDHB16 (protocadherin beta 16),1.03,0.8,inactive
ATN1 (atrophin 1),0.24,0.92,inactive
USP27X (ubiquitin specific peptidase 27 X-linked),0.24,1.48,inactive
FBLN1 (fibulin 1),0.68,1.06,inactive
OR1D2 (olfactory receptor family 1 subfamily D member 2),0.35,0.82,inactive

Entries listed so far whose target name starts with M or m (2):
target,cell gain with vemurafenib,lactate per cell with vemurafenib,call
MAOB (monoamine oxidase B),0.3,1.8,inactive
MGA (MAX dimerization protein MGA),-0.01,1.85,inactive

Continued:
target,cell gain with vemurafenib,lactate per cell with vemurafenib,call
EPHA3 (EPH receptor A3),0.49,0.76,inactive
LOC652591 (retired record),0.56,0.76,inactive
CLK3 (CDC like kinase 3),0.42,1.14,inactive
FAM193B (family with sequence similarity 193 member B),0.03,2,inactive
FCSK (fucose kinase),0.33,1.21,inactive
SRPK2 (SRSF protein kinase 2),0.35,1.05,inactive
OR2W3 (olfactory receptor family 2 subfamily W member 3),0.53,1.06,inactive
AVPI1 (arginine vasopressin induced 1),0.75,0.55,inactive
DUT (deoxyuridine triphosphatase),0.96,1.1,inactive
RECQL4 (RecQ like helicase 4),0.52,0.84,inactive
ZNF512B (zinc finger protein 512B),0.33,0.5,inactive
CAPSL (calcyphosine like),0.49,0.97,inactive
MGMT (O-6-methylguanine-DNA methyltransferase),0.93,0.64,inactive
KCNA5 (potassium voltage-gated channel subfamily A member 5),0.54,0.92,inactive
ENDOG (endonuclease G),0.5,1.73,inactive
SLC16A5,0.71,0.53,inactive
MTSS1 (MTSS I-BAR domain containing 1),0.65,0.74,inactive
PXMP4 (peroxisomal membrane protein 4),0.73,0.51,inactive
AOC1 (amine oxidase copper containing 1),0.73,1.09,inactive
